From paper PMC10710042
No constants are given. Whether binding was seen depends on the method and setting. In cells and extracts the contact can be indirect. Some results given as binding are weak or reduced against the parent protein; the word gives no strength.

Protein sequences, listed by entry. Tags and fused reporters are not part of them.
UniProt P98175: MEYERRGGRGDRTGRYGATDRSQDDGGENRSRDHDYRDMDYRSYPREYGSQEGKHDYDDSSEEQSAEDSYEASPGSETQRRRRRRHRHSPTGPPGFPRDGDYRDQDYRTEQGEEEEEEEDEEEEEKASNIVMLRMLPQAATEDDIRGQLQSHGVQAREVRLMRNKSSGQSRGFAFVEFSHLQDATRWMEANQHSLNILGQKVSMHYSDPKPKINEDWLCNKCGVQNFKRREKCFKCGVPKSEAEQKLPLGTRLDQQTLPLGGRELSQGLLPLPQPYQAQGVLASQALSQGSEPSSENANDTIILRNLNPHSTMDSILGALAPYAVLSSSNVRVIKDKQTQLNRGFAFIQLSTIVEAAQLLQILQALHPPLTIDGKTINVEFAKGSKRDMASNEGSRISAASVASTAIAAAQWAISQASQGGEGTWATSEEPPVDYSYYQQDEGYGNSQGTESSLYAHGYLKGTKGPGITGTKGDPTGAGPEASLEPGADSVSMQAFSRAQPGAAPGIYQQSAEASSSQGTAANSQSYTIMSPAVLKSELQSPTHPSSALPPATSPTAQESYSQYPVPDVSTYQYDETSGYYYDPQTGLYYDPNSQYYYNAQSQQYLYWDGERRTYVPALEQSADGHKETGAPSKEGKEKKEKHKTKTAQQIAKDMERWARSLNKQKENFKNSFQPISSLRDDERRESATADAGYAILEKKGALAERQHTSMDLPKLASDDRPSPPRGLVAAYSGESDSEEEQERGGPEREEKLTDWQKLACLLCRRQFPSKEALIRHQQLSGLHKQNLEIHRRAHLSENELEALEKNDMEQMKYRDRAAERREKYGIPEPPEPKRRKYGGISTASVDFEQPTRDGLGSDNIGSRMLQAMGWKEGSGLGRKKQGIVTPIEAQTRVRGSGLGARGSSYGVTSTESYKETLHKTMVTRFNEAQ
UniProt P01106: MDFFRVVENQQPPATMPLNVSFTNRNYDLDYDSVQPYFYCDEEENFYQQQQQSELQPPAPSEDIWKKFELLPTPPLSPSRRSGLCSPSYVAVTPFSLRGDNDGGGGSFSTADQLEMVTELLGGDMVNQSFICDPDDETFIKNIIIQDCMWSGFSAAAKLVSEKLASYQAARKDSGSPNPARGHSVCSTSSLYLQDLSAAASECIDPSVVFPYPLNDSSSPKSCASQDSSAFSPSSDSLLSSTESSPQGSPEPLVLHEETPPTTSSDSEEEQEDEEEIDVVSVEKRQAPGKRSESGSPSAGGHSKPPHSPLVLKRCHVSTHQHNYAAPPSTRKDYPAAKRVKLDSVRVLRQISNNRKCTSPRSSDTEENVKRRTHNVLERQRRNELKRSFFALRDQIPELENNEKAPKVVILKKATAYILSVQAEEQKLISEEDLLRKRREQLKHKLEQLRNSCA

Tests used:
Flag-RBM10 [1] = target: Flag-RBM10 (UniProt P98175); assay: co-IP; both proteins overexpressed from plasmids in HCT116 p53-/- (H1299 in one legend); IP with anti-Flag or anti-HA antibodies or beads at 4 °C; immunoblot
Flag-RBM10 [2] = target: Flag-RBM10 (UniProt P98175); assay: co-IP; cell fractionation of transfected HCT116 p53-/- or H1299 cells, then IP with Flag-beads; complexes found in the nuclear fraction
His-tagged RBM10 = His-tagged RBM10 (UniProt P98175); assay: pull-down; His-tagged RBM10 from E. coli on Ni-NTA agarose beads as bait, incubated with cell lysates for 1 to 2 h at RT or at 4 °C; washed with 50 mM Tris/HCl pH 8.0, 0.5% NP-40, 1 mM EDTA, 150 mM NaCl, 10% glycerol; immunoblot; only the target purified
[3] = target: endogenous c-Myc (human (endogenous in HCT116)) (UniProt P01106); assay: co-IP; endogenous proteins in HCT116 p53+/+ and HCT116 p53-/- lysates; IP with anti-c-Myc or anti-RBM10 antibody, IgG as control; immunoblot

Substance | binding (Flag-RBM10 [1]) | binding (Flag-RBM10 [2]) | binding (His-tagged RBM10) | binding [3]
HA-c-Myc (from UniProt P01106 1-454) | binds | binds | binds | –
endogenous RBM10 (RNA-binding motif protein 10) (from UniProt P98175 1-930) | – | – | – | binds
endogenous c-Myc (from UniProt P01106 1-454) | – | – | binds | –
